No constants are given. Whether binding was seen depends on the method and setting. In cells and extracts the contact can be indirect. Some binding calls cover weakened binding; strength is not graded here.
Target: T1, PGC-1α (UniProt Q9UBK2)
T1 sequence: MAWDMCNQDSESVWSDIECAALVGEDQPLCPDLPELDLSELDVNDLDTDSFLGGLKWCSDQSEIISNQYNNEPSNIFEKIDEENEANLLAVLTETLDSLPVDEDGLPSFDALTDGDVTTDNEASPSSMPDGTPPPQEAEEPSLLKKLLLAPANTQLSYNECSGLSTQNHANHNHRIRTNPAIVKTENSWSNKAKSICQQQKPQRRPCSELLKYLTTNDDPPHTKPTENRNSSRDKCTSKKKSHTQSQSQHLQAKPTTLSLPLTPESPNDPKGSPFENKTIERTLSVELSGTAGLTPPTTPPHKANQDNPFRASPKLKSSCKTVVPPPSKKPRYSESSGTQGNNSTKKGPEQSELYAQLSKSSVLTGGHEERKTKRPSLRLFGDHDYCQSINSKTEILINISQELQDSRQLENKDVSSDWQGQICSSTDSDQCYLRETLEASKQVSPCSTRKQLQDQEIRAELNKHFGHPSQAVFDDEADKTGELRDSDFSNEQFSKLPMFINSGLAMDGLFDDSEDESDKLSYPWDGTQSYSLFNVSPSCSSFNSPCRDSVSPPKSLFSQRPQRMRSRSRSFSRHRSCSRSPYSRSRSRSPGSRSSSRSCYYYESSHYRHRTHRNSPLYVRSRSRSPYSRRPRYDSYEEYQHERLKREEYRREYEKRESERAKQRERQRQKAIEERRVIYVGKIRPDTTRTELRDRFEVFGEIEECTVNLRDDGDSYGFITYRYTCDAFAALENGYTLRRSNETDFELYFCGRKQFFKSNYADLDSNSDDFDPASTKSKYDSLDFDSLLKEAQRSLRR
Assay: co-IP; SW872 adipocytes by the figure's title; bait, antibodies and conditions not told

binding: binds
B1: FNDC5/irisin (protein, UniProt Q8NAU1 1-260)
chain: MQAARGGAGRPERPGRPGRGPERERERPPGAGAASPCAAPGLPAGGATIHPGSPSAWPPRARAALRLWLGCVCFALVQADSPSAPVNVTVRHLKANSAVVSWDVLEDEVVIGFAISQQKKDVRMLRFIQEVNTTTRSCALWDLEEDTEYIVHVQAISIQGQSPASEPVLFKTPREAEKMASKNKDEVTMKEMGRNQQLRTGEVLIIVVVLFMWAGVIALFCRQYDIIKDNEPNNNKEKTKSASETSTPEHQGGGLLRSKI

Reference: publication PMC12152850
